Source: paper PMC7819943, “Rice protein-binding microarrays: a tool to detect cis-acting elements near promoter regions in rice”
Some of the results follow.

Target: T1, OsSMF1 (Oryza sativa, UniProt Q6ZLB0 1-436)
T1 sequence: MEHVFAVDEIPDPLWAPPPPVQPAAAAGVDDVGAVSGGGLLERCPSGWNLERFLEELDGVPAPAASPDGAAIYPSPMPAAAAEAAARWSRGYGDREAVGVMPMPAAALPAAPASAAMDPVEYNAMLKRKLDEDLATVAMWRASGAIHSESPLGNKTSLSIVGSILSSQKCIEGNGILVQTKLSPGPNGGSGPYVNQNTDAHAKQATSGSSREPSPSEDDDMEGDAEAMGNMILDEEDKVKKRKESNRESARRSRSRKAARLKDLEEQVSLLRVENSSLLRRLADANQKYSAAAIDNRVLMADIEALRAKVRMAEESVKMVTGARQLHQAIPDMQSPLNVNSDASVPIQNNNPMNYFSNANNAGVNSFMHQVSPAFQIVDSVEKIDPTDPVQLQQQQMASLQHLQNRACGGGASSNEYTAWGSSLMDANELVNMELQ
Test: protein-binding microarray (RPBM); PBS, 2% BSA, 51.3 ng/ul salmon testes DNA, 50 uM zinc acetate, 200 nM TF, 25 C, 1 h; high values mean tight binding
Settings: protein: recombinant; tags: N-terminal polyhistidine and DsRed monomer fusion (pET32a); chain copies: 2; label: CyDye5-dUTP incorporated in the synthesized complementary strand; 3' TTTTT single-stranded linker to array surface; dsDNA, one strand shown
In short: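 Binding signal is reported as fluorescence intensity per feature (arbitrary units) from an Axon 4000B scanner. Incubation used 200 nM of each Ni–NTA-purified, N-terminally polyhistidine- and DsRed-fused transcription factor from E. coli BL21-CodonPlus on a double-stranded custom Agilent array for 1 h at 25 °C, with 50 µM zinc acetate in the buffer, followed by washing.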

Point of comparison: “TCTCGTTTGTTTGTCATATGTAACACGTATGAATACCGACCGGAGTCACCTAGTGCAG”, binding signal 6210 fluorescence intensity (a.u.). Against it:
- ACTGTGGTTTCTAGTGGGTTTTATTATTTTATAATTTGTACGGAGTCACCTAGTGCAG — higher, 16600 fluorescence intensity (a.u.)
- AGATGCCGGGAGACGTCACGTGATGTCACGCGCGGTCCACCGGAGTCACCTAGTGCAG — higher, 11400 fluorescence intensity (a.u.)
- CGCTTGGCGCCGAGCCCTCCACGTCGCCCGCTCGTCTCTTCGGAGTCACCTAGTGCAG — lower, 6140 fluorescence intensity (a.u.)
- CTGGCCTTGCTCCCTCCCATGACGTACCTTCTCCTTCCTCCGGAGTCACCTAGTGCAG — lower, 5140 fluorescence intensity (a.u.)
- GCGCTTCCGTTCTGAGTCACTGACGAGGTGGGCCCTTAGGCGGAGTCACCTAGTGCAG — higher, 8860 fluorescence intensity (a.u.)
- AACTGAAGTGTACCCAAATCTTGATCCAAGTATTGGTACTCGGAGTCACCTAGTGCAG — higher, 15800 fluorescence intensity (a.u.)
- AAAATTATATTTCAAATAACTCTGCAATTACACGCGTTAACGGAGTCACCTAGTGCAG — lower, 3210 fluorescence intensity (a.u.)
- AAATATATAGTGCCAATTATTGTATATGTGGCAAATAAAGCGGAGTCACCTAGTGCAG — higher, 25900 fluorescence intensity (a.u.)
- GTAGTGTGAGTTGTGGTAAGCAAGAGATAGGGATAAGGGGCGGAGTCACCTAGTGCAG — lower, 4290 fluorescence intensity (a.u.)
- AGCCGCGCGCGCTCCAGTTCCACTTCCAACGACACGTCCCCGGAGTCACCTAGTGCAG — lower, 3730 fluorescence intensity (a.u.)
- TTCATACAACACATATATACAACTTCACAAAATCTTAAGTCGGAGTCACCTAGTGCAG — lower, 3160 fluorescence intensity (a.u.)
- TTTAGCAATGCACGTGGACAAAGATATGTCCAAGTTCATACGGAGTCACCTAGTGCAG — lower, 5680 fluorescence intensity (a.u.)
- CTTTCTCCGTCCGTCCATTGTCACTTGCATCATCGTCGTACGGAGTCACCTAGTGCAG — lower, 3980 fluorescence intensity (a.u.)
- GCCCACCCGCCCGGACACGTGGACGGTCACGGTGGGCCGTCGGAGTCACCTAGTGCAG — higher, 9700 fluorescence intensity (a.u.)
- CTTAACGTGACGTAGCAGGTTTATCACCAACTATTGCACTCGGAGTCACCTAGTGCAG — higher, 11100 fluorescence intensity (a.u.)
- ACTGTGCCATGATTAGATTAGATGCGTGTCCAGATTGCTGCGGAGTCACCTAGTGCAG — lower, 4920 fluorescence intensity (a.u.)
- ATATGTTGCCACGCTGGACCGCCACGTAAGTCAGTCAATCCGGAGTCACCTAGTGCAG — higher, 20000 fluorescence intensity (a.u.)
- TGCACCAGGATTGCACCATCGTCACCTGCAACTTTTGGGCCGGAGTCACCTAGTGCAG — lower, 3370 fluorescence intensity (a.u.)
- TGGTTGATAGCTACGTCACAAACGTCACACTGATCAAAGTCGGAGTCACCTAGTGCAG — lower, 5830 fluorescence intensity (a.u.)
- GGTTGGGACTTGGTAAGGTTGTGGTGGTGTCATATGTCTCCGGAGTCACCTAGTGCAG — lower, 4090 fluorescence intensity (a.u.)
- CGTGACGGCTGAGTCAGCATGGGACCTGCGTGGGCCCCACCGGAGTCACCTAGTGCAG — higher, 16000 fluorescence intensity (a.u.)
- AAGAAAGAGTGTGTGTACTGTTGCACTGTGTACCGTGTAGCGGAGTCACCTAGTGCAG — lower, 4390 fluorescence intensity (a.u.)
- TCGATTCTGATAGCGTGCAGTACGTGTTGTTGACAAGTGACGGAGTCACCTAGTGCAG — lower, 3320 fluorescence intensity (a.u.)
- TGGCGGTGGTGGTTGCGACACACTTGGCATGTCCTATATACGGAGTCACCTAGTGCAG — lower, 3710 fluorescence intensity (a.u.)
- TGTGTGAGCTTTAGGGTGTGTTTGGATGGAGGGTTTTGGGCGGAGTCACCTAGTGCAG — lower, 4190 fluorescence intensity (a.u.)
- TGCCTTAAGTAAACAGTTTCCACATAATACTATCTCACGCCGGAGTCACCTAGTGCAG — lower, 3290 fluorescence intensity (a.u.)
- TCCAGTGCTATTAGTTGACAAAGCACTACAGCGTTGTGTGCGGAGTCACCTAGTGCAG — lower, 3500 fluorescence intensity (a.u.)
- ATGCATGACAGCACACCACACATTGACACCACTGAGGCAGCGGAGTCACCTAGTGCAG — lower, 3260 fluorescence intensity (a.u.)
- ACTTCCCCAACAACAAAGCCCAACTCCTGCGCCCTGACACCGGAGTCACCTAGTGCAG — lower, 6150 fluorescence intensity (a.u.)
- AACTCGACTTGACCATCTGGCCCCACCTGTCAGCCTCTCACGGAGTCACCTAGTGCAG — lower, 3220 fluorescence intensity (a.u.)
- GAAGTGGACTTATTCCAACTAAGGCTGATTCAGCAGGCCACGGAGTCACCTAGTGCAG — lower, 3940 fluorescence intensity (a.u.)
- CCGGATATTATCCTGAGATCTATATATGCTAGATTGATTTCGGAGTCACCTAGTGCAG — higher, 10500 fluorescence intensity (a.u.)
- TCTCTCTCTTCAGTGCCATCACCATCTCTCTCTCTCTCTCCGGAGTCACCTAGTGCAG — lower, 3520 fluorescence intensity (a.u.)
- ATCGACTGCTGCGTGTCACGTACGCACGAAACTTGTTGATCGGAGTCACCTAGTGCAG — lower, 3950 fluorescence intensity (a.u.)
- CGGGTTCTTCATGTGCTGACTTCATTCCATAATTCATGTTCGGAGTCACCTAGTGCAG — lower, 3580 fluorescence intensity (a.u.)
- CGGCTGAATGTGGGCTTGGCATGCACTGCAGCGGTTGTTGCGGAGTCACCTAGTGCAG — lower, 3610 fluorescence intensity (a.u.)
- AACGGACAACATACTTCCTGATCTACTCCACCTGGCATTCCGGAGTCACCTAGTGCAG — lower, 3700 fluorescence intensity (a.u.)
- TGTTTAGTACTGTAGCAGATTTACTGTAACGTCTCATCTGCGGAGTCACCTAGTGCAG — lower, 3170 fluorescence intensity (a.u.)
- GGTGAATTTTACTCATTGATACTCCAGCTAGCTAACGAATCGGAGTCACCTAGTGCAG — lower, 3330 fluorescence intensity (a.u.)
- CCGATCGACATCAATATGGATGCATGCATACATGTCATAGCGGAGTCACCTAGTGCAG — lower, 4330 fluorescence intensity (a.u.)
- GTGCAGTCAGGTGCACTCGGTTCACGGATATTGCCTCGCTCGGAGTCACCTAGTGCAG — higher, 7880 fluorescence intensity (a.u.)
